Library screening results

A: 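Whole-cell assay for inhibitors of Mycobacterium tuberculosis growth, labelled Cornell in the record; the read-out is not stated. The concentration is filed as 10 mM, unlikely as a test dose, so the dose is not known. The record gives no direction; compounds strong in two other growth screens of this library score well above the rest, so higher reads as stronger inhibition. Size under these conditions: about 53,000 compounds, about 900 of them at 50% or above in at least one test.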
B: 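Assay on Mycobacterium tuberculosis, filed only as a heat shock assay from Cornell; the read-out is not stated. The concentration is filed as 10 mM, unlikely as a test dose, so the dose is not known. Higher reads as stronger inhibition (inferred: compounds with an IC50 in retests scored well above the rest). Of about 69,000 compounds tested this way, about 930 (1.4%) reached 50% or more in at least one test.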

Each number is a percent effect as filed.
How 0% and 100% were set is not recorded. Most values in the screen are low, and negative values occur.
This is an unselected part of the compounds tested.
A dash means the value is not listed here; it may have been measured.

SMILES	A	B
O=C(Nc1c(N2CCCC2)cccc1N1CCCC1)c1cnsn1	13.33%	3.548%
CC(C(=O)NCC(F)(F)F)N1CCC(N2CCN(C)C2=O)CC1 (centres undefined)	-	-4.948%
COc1ccc(-c2nnc(CNCCn3cccn3)o2)cc1	-	-11.96%
CN(C)C(=O)CNC(CC(F)(F)F)c1ccc(Cl)cc1 (centres undefined)	0.09353%	-5.118%
CN(C)C(=O)C1CN(Cc2ccccn2)CCN(S(C)(=O)=O)C1 (centres undefined)	-2.792%	-14.42%
O=C(O)C(F)(F)F.[H][C@@]12CCN(S(C)(=O)=O)CC[C@]1(C(=O)N1CCCC1)CCN2CC	-	3.577%
Cc1ccc(C(=O)N2CCC3(CCN3c3ncccn3)C2)cn1.O=C(O)C(F)(F)F (centres undefined)	8.16%	-7.746%
CCc1nc(C(=O)N2CCN(CCc3ccc(OC)cc3)CC2)c[nH]1	24.15%	9.36%
Cc1ccn(CCNc2ncnc3c2CCN(Cc2ncc[nH]2)CC3)n1	-1.909%	6.053%
O=C(O)C(F)(F)F.[H][C@@]12CCN(Cc3cccc(F)c3)C[C@]1(C(=O)N1CCOCC1)CCO2	2.278%	5.195%
Cc1ccc(CN2CCC3(CC2)CCN(Cc2ccoc2)CC3)cc1.O=C(O)C(F)(F)F.O=C(O)C(F)(F)F	-42.28%	4.691%
COc1ccc(CN(Cc2c[nH]cn2)CC2CCCO2)c(OC)c1.O=C(O)CC(O)(CC(=O)O)C(=O)O (centres undefined)	48.22%	-11.61%
Cc1nc(CN(C)C2CCN(Cc3ccno3)C2)no1 (centres undefined)	-	-9.493%
CS(=O)(=O)NCc1cnc2n1CCN(Cc1cccs1)CC2.O=C(O)C(F)(F)F	-10.08%	-31.43%
Cc1cnc(N2CCC(c3ccccc3)CC2)nc1-c1ccnn1C	43.23%	18.07%
CCN1CCC(NC(=O)N(C)Cc2csc3ccccc23)CC1	-	-15.45%
[H][C@]12CCN(c3ncc(C)cn3)CC[C@@]1([H])S(=O)(=O)N(CCC(C)C)C2	17.2%	-32.44%
COc1cc(F)c(CN2CCN(CC(C)C)C(=O)C2C)cc1OC (centres undefined)	17.32%	10.74%
Cc1nc(CN2Cc3nccn3CC(CN3CCOCC3)C2)cs1.O=C(O)C(F)(F)F.O=C(O)C(F)(F)F (centres undefined)	17.73%	-32.64%
O=c1[nH]nc(CCCN2CCOCC2)n1Cc1cccc(F)c1	-	-10.48%
Cc1nn(C)cc1C(=O)Nc1cccc(CN2CCC(CO)CC2)c1	-50.57%	-25.32%
O=C(O)C(F)(F)F.[H][C@@]12CCCO[C@]1([H])[C@H](N1CCCC1=O)CN(Cc1cnn(C)c1)C2	18.41%	-30.64%
O=C(NCCCOCC1CC1)Nc1cccnc1N1CCOCC1	13.17%	14.25%
CC(Cn1ccnc1)NCc1ccc2nonc2c1 (centres undefined)	-	2.425%
Cc1ccnc(NC(=O)c2cc(C)oc2C)c1	-65.3%	-21.09%
CCOc1ncnc2c1CCN(Cc1csc(C)n1)CC2.O=C(O)C(F)(F)F	-30.43%	-23.28%
[H][C@]12CC[C@]([H])(CN(C(=O)c3ccc(C)s3)C1)N(CC1CCC1)C2	-13.31%	17.86%
CCc1nc(CN(C)C(=O)C2CCC(=O)N(CC3CCCCC3)C2)no1 (centres undefined)	-10.31%	1.47%
CCC(C)C(=O)NCCc1nc(C(F)(F)F)cs1 (centres undefined)	-	8.66%
Cc1noc(C)c1CN1CCn2cc(CN3CCCCC3)nc2C1.O=C(O)C(F)(F)F	2.485%	15.34%
Cc1cccc(OCCNC(=O)C(C)S(=O)(=O)C2CCCC2)c1 (centres undefined)	-1.142%	-24.71%
N#Cc1ccccc1CN(CC(N)=O)C1CCCC1	-	-1.931%
Cn1cc(C2=CCN(CCCOc3ccc(C(N)=O)cc3)CC2)cn1	10.28%	0.08887%
Cc1nc(C2CCCN2Cc2ccn(C)c(=O)c2)no1 (centres undefined)	-	9.903%
CCCN1CCCN(C(=O)c2ccc(Oc3cccnc3)cc2)CC1	-18.24%	3.455%
CC(=O)N1CC2(CCNCC2)c2cc(Cl)ccc21.Cl	63.2%	3.682%
O=C(Nc1ccccc1)[C@H]1O[C@H](CCN2CCCCC2)CC[C@@H]1O	0.8885%	-4.271%
Cc1nc2ccc(CN3CC4(CCOC4)CCC3=O)cc2[nH]1 (centres undefined)	19.52%	5.262%
O=C(Nc1nncs1)c1ccc(-n2cnnn2)cc1	-27.49%	-6.663%
CCS(=O)(=O)Cc1nc(-c2cnn3c(C)cc(C)nc23)no1	3.554%	-11.61%
COCCC(=O)N1CCC2(CN(Cc3cccc(Cl)c3)C2)C1	-38.98%	-12.87%
COCC(NC(=O)NCc1cccc(Cl)c1)c1ccco1 (centres undefined)	-	4.389%
O=C(Nc1cnc2n1CCCC2)c1cccc(NC(=O)C2CCCC2)c1	-27.29%	-14.65%
c1cc(C2CN(C3CCCC3)C2)n[nH]1	19.46%	1.837%
CN(C)CCNCC1(O)CCCN(Cc2cccc(F)c2F)C1=O (centres undefined)	-	-13.6%
c1ccc2oc(CN3CCCCC3Cn3cncn3)nc2c1 (centres undefined)	10.3%	2.058%
CCNC(=O)c1cn2cc(-c3ccccc3Cl)n(CC3CC3)c(=O)c2n1	93.59%	99.63%
O=C(Nc1ccccc1)N1CCn2c(nnc2C2CCCN2)C1 (centres undefined)	-	-31.68%
COCCN1C(=O)CC[C@]12CC[C@@H](NCc1ccc(OC)cc1)CC2	3.548%	-13.4%
c1cncc(NCCNC2CCSC2)c1 (centres undefined)	-20.36%	-4.545%
O=C(O)C(F)(F)F.O=C1CC[C@]2(CC[C@@H](NC3CCOC3)CC2)N1Cc1ccccc1 (some centres undefined)	-	-3.049%
O=C(C1CC=CC1)N1Cc2nccn2CC(CN2CCCC2)C1 (centres undefined)	0.617%	1.465%
CC(C)c1ncc(S(C)(=O)=O)c(C2CCCNC2)n1 (centres undefined)	26.47%	12.09%
CCC(C)CN1CCC(n2cc(C3CCCC3)nn2)CC1 (centres undefined)	7.584%	6.791%
O=C1COc2cc(C(=O)N3CCCC(n4ccnc4)C3)ccc2N1 (centres undefined)	13.02%	-37.61%
COc1ncnc2c1CCN(C(=O)Cc1cccc(F)c1)CC2	14.28%	-27.21%
COC(=O)N1CCCC(C(=O)Nc2nc(C)c(SC)s2)C1 (centres undefined)	-2.335%	-17.14%
O=C(Nc1cnn(Cc2ccccc2)c1)N1CCN(CCO)CC1	44.2%	6.717%
CC1CN(CC(=O)NCCc2ccccc2)CCN1c1nccs1 (centres undefined)	-47.98%	-17%
O=C(C1CCOC1)N1CCC2(CC1)COC2 (centres undefined)	13.67%	-12.39%
Cc1csc(C2CCCCN2C(=O)c2cc(C3CC3)[nH]n2)n1 (centres undefined)	-	-4.476%
COC(=O)CC(NC(=O)CCCn1cccn1)c1ccc(Cl)cc1 (centres undefined)	5.126%	3.156%
Cc1ccc(-c2c(C(=O)NC3CCN(C)CC3)csc2C)cc1	5.586%	-22.22%

Source: ChEMBL document CHEMBL3988442, “University of Dundee, Small-Polar-MMV Screening Library” (2021).